Test results published in patent US12533339B2, “Small molecule antiviral drug treatment for human papillomavirus infections” (THE TRUSTEES OF INDIANA UNIVERSITY, priority 2020, dated 2026).
At least one structure is not confirmed: it was looked up by name or label, or the drawing left a doubt.

By UniProt entry, the sequences of proteins in these tests, tags left out.
UniProt P03126, whole entry C58S, looked up: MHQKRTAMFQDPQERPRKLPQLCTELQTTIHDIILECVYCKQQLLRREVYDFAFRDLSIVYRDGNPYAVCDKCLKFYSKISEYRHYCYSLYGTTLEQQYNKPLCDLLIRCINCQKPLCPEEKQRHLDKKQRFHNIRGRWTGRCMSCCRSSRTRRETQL

Target: E6C51S/E6AP (Human papillomavirus type 16, UniProt P03126, C58S)
Assay: E6/E6AP binding assay (amylose-bound MBP-16E6, E6AP-BAP activity), C51S 16E6
Design: species or system HPV-16

C=CC(=O)N1CCN(c2nc(CCc3ccc(F)cc3)nc3sc4c(c23)CCCC4)CC1 [EIN-136, 1-(4-(2-(4-fluorophenethyl)-5,6,7,8-tetrahydrobenzo[4,5]thieno[2,3-d]pyrimidin-4-yl)piperazin-1-yl)prop-2-en-1-one]
% Inhibition @ 10 μM E6C51S/E6AP (10 μM compound): 0%
% Inhibition @ 100 μM E6C51S/E6AP (100 μM compound): 0%
